Results: US12667724B2, “Combination therapy for the treatment of depression” (Flow Neuroscience, Inc., priority 2022, dated 2026)
At least one compound was matched to its structure with a doubt left.

Test: Weekly MADRS-s self-assessment of MDD subjects on a prescribed antidepressant combined with home tDCS sessions (Example 2)
Type: in vivo, human
Details: Week 6 after initiation of treatment; Fluoxetine vs. the labelled agent, each combined with tDCS; irrespective of tDCS adherence
Excerpt: In this example, a subject completed a MADRS-s questionnaire at baseline (defined as a time preceding initiation of neurostimulation) to determine a starting measurement to be used in an assessment of treatment efficacy. Ideally, baseline measures were made close to the period of time in which the first neurostimulation session began. The subject completed the same MADRS-s questionnaire weekly during a period of ongoing treatment comprising administering of a prescribed pharmacologic antidepressant agent and delivery to the subject of plurality tDCS sessions. […]
Subjects were provided with a tDCS neurostimulation device, instructions of use, and an program capable of being run on a handheld electronic device which provided instructions, recorded responses to various questionnaires completed by the subject, and recorded information regarding the tDCS stimulation sessions completed by the user. Amongst the tDCS stimulation session information recorded was the date of each session completed, the time of day of each completed session, the duration of each completed session, the intensity of electrical stimulation in each session, the latency from the most recently completed session to the previous session.
Subjects completed a MADSR-s assessment at baseline prior to their first tDCS session. […] If the dosage had changed, the subject recorded the extent of the change. […]

In the case of `CN(C)CCCC1(c2ccc(F)cc2)OCc2cc(C#N)ccc21` (stereo not shown) [Citalopram, citalopram], the “Result of ANOVA of change in MADRS-s score” value is reported as “Not”.
